# Measured values from PubChem BioAssay AID493014 (National Center for Advancing Translational Sciences (NCATS), 2011).
# Some of the results follow. The main result of the screen is listed elsewhere. These columns were measured beside it and carry no call. The list favours compounds with an active or inconclusive main result. Potencies come from curve fits of mixed quality, noted in brackets.
# Experiment: qHTS Assay to Find Inhibitors of Chronic Active B-Cell Receptor Signaling
# Conditions: ABC-DLBCL IkBa-CBG/CBR reporter, luminescence ratio (green luciferase fused to IkBa over red control in TMD8 lymphoma cells), 4 h
# Outline: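 Doxycycline induced both beetle luciferases in TMD8 lymphoma cells; IKK-driven degradation limits the IkappaBalpha-fused green signal, while red luminescence normalises for cell number and nonspecific effects. Compounds tested up to 46 uM, 4 hrs.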
# [1] = measured here: CBR red luminescence, cell number
# [2] = measured here: IkBa-CBG green luminescence
SMILES,AC50 [1],AC50 [2]
COc1ccccc1NC1=C(NC(C)=O)C(=O)c2ccccc2C1=O,"4.47 µM [rising, single point]","35.5 µM [rising, partial curve, poor fit]"
COc1ccc(-c2csc3nc(-c4cccnc4)nc(Cl)c23)cc1OC,"29.1 µM [falling, single point]",–
Cc1ccc(C(=O)Nc2cc3c(cc2Cl)OCCCO3)cc1,"3.98 µM [rising, partial curve, poor fit]",–
O=C(Nc1ccccn1)C1COc2ccccc2O1 (centres undefined),"18.4 µM [falling, partial curve]",–
O=C(NNC(=O)c1ccc2ccccc2c1O)c1ccccc1Cl,"23.1 µM [falling, partial curve]",–
O=C(O)c1ccc(Cn2nnc3sc4c(c3c2=O)CCCC4)cc1,"11.2 µM [falling, partial curve]",–
Cc1cc(C)n2nc(C(=O)N/N=C/c3ccco3)nc2n1,"15.8 µM [falling, partial curve, poor fit]",–
CC1C/C(=N\NC(=O)c2ccc([N+](=O)[O-])cc2)CC(C)(C)C1 (centres undefined),"5.62 µM [rising, single point]",–
O=C(Nc1ccc(Cl)cn1)c1ccc(Oc2ccccc2)cc1,"6.31 µM [rising, single point]",–
CNC(=O)N(O)C1N(/N=C/c2cccnc2)C(=S)SC1(C)C (centres undefined),"35.5 µM [rising, single point]",–
C/C(=N\Nc1ncc(Cl)cc1Cl)c1ccccn1,–,"35.5 µM [falling, single point]"
COc1ccc(C(=O)Nc2cc(C(=O)NCCc3ccccc3)ccc2Cl)cc1,"0.651 µM [rising, full curve, poor fit]",–
O=C(CSc1ncc(C(F)(F)F)cc1Cl)NCC1CCCO1 (centres undefined),"6.31 µM [rising, single point]",–
Cc1nc(NC(=O)c2ccc(Cl)cc2)sc1-c1csc(Nc2cccc(F)c2)n1,"3.98 µM [falling, full curve, poor fit]",–
C/C(CCC12CC3CC(CC(C3)C1)C2)=N\NC(N)=S,–,"18.4 µM [falling, partial curve, poor fit]"
COC(=O)c1cc(-c2cccc([N+](=O)[O-])c2)c2c(=O)[nH]c(=O)n(C)c2n1,"5.62 µM [rising, single point]",–
CN(C)CCCn1cnc2c(c1=N)C(c1ccccc1)c1ccc3ccccc3c1O2 (centres undefined),"7.94 µM [falling, partial curve]",–
Cc1cccc(CSCCNC(=O)CN2C(=O)c3ccccc3S2(=O)=O)c1,"2.82 µM [rising, full curve, poor fit]",–

# Given with tabs: part of the list above
SMILES	AC50 [1]	AC50 [2]
O=C(CSc1ncc(C(F)(F)F)cc1Cl)NCC1CCCO1 (centres undefined)	6.31 µM [rising, single point]	–
Cc1nc(NC(=O)c2ccc(Cl)cc2)sc1-c1csc(Nc2cccc(F)c2)n1	3.98 µM [falling, full curve, poor fit]	–
